Library screen at single concentrations

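Whole-cell growth test on Mycobacterium tuberculosis, read after 4 days in a medium based on cholesterol and the lipid DPPC; the read-out is not stated. Compounds at 50 µM. Direction is inferred from retests: higher values go with more growth inhibition. About 69,000 compounds were tested under these conditions; 0.54% (about 370) showed 50% or more at least once.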

Each number is a percent effect as filed. How 0% and 100% were set is not recorded. Most values in the screen are low, and negative values occur. Compounds were drawn at random from those tested, without regard to their results. Two or more numbers in one place are separate tests of the same structure; such repeats can differ widely.

SMILES,effect
COCc1nc(C(=O)N2CCCC(n3nc(C)nc3C)C2)cs1 (stereo not shown),-33.96%
COc1ccc(C2=CCN(C(=O)CN(C)Cc3ccoc3)CC2)cc1,18.51%
CN(C(=O)COc1ccc(-c2noc(C3CCCO3)n2)cc1)C1CC1 (stereo not shown),17.03%
COc1cccc2c1OCC(CNC(=O)Cc1csc(C(C)=O)c1)C2 (stereo not shown),-0.9922% and -30.17%
c1ccc(CCN2CCc3c(ncn3C3CC3)C2)nc1,-38.61%
[H][C@]12CN(C)CCN1C(=O)N(C1CCOCC1)C2,-9.764%
O=S(=O)(NCC1(c2cccs2)CCOCC1)c1ccc2c(c1)OCCO2,2.939%
CN1CCN(Cc2ccccc2Oc2nccc3occc23)CC1,-9.191%
Cc1nc(C)n(C2CCCN(C(=O)c3c(C)nn4cccnc34)C2)n1 (stereo not shown),-15.41%
CCC(CO)N(C/C(C)=C/c1ccco1)Cc1ccsc1 (stereo not shown),10.58%
Cc1ccc(C)c(S(=O)(=O)NCCNc2ccc(-n3cccc3)nn2)c1,39.54%
Cc1ncsc1CN1Cc2cnn(C)c2C(COCC2CC2)C1.O=C(O)C(F)(F)F.O=C(O)C(F)(F)F (stereo not shown),-1.889% and 2.669%
O=C(O)C(F)(F)F.O=S(=O)(C1CC1)N1CCOCC2(CCN(c3ccccn3)C2)C1 (stereo not shown),-15.48%
C=C(C)COc1cccc(CNCc2nc3ccccc3c(=O)[nH]2)c1,0.6154%
Cc1cc(C(=O)N2CCCC3(CNC(=O)O3)C2)c2c(C)nn(C)c2n1 (stereo not shown),-0.7236%
CCNc1ncc(CN(Cc2ccccc2)CC(C)CO)cn1 (stereo not shown),-11.59%
CN(CCNC(=O)c1scnc1Cl)c1ccccc1,-13.81%
COc1cc(C)nc(N2CCN(C(=O)CCc3ccsc3)CC2)n1,-0.4504% and 10.27%
Cc1nc(CN(C)C2CCN(Cc3cccc4c3OCCO4)C2)no1 (stereo not shown),3.557%
CC(C)CNC(=O)c1sccc1-n1cnnn1,5.559%
Cn1cc(CN2CCCC(CCc3ccc(F)c(F)c3)C2)cn1 (stereo not shown),0.4079%
c1cncc(-c2nnc([C@H]3CCN(CC4CCCCC4)C3)o2)c1,19.71%
CN1C(=O)C(c2cccnc2)CC12CCN(Cc1nccs1)CC2 (stereo not shown),-11.39%
C[C@@H]1CN(C(=O)CCc2nncn2C)C[C@@]1(O)C1CCC1,9.67%
CCOc1ccc(CN2CCC(c3ccn[nH]3)C2)cc1CO (stereo not shown),2.488% and -1.49%
CC(C)(C)c1cc(=O)[nH]c(C2(N)CCCCC2)n1.Cl,-5.349%
CC(=O)Nc1ccc(Oc2cc(C)nc(C3CCCNC3)c2)cc1.Cl (stereo not shown),0.09816% and -21.34%
CN(C)Cc1noc2c1CN(Cc1ccc[nH]1)CC2,-5.467%
COCCCC(=O)NCc1cccc(NC(N)=O)c1,-21.09%
Cc1cc(CNC(=O)NC(C)c2ccccc2)no1 (stereo not shown),-1.358%
COc1ccc(C(NCc2cccc(O)c2)C2CC2)cc1 (stereo not shown),-26.71%
CC(C)(C)c1noc(CCC(=O)N(CC2CCOC2)C2CC2)n1 (stereo not shown),-2.084%
CCCNC(=O)c1ncn2c1CN(CC(C)C)S(=O)(=O)c1ccccc1-2,-30.35%
CCN(CC)C(CNC(=O)CCc1nc(C(C)C)no1)c1ccco1 (stereo not shown),-18.49%
O=C(O)C(F)(F)F.O=C(c1cnoc1)N1CCC[C@]2(C[C@H](Oc3ncccc3F)CO2)C1,-3.093%
CN(C)C(=O)c1ccc(-c2cscn2)cc1,-1.369% and -18.73%
O=S(=O)(c1ccccc1)N1CC[C@]2(C[C@@H](OCC3CC3)CO2)C1,-3.167%
CCN1CCN(C(=O)COCc2cccc(OC)c2)CC1,1.225%
CN(C(=O)Cc1ccccc1Cl)C1CCN(c2ccccn2)CC1,32.63%
[H][C@]12CN(Cc3cccc4[nH]ccc34)C[C@]1([H])N(C1CCOCC1)C(=O)CO2,25.64%
O=C(CCC1CCCN(C(=O)CCc2ccc(F)c(F)c2)C1)NC1CC1 (stereo not shown),9.46%
CN(C)[C@@H]1CCN(S(C)(=O)=O)[C@H]1Cc1ccccc1,-0.7246%
CCn1nc(C)c2c1cnn2CCNS(C)(=O)=O,-18.05%
CC(C(=O)O)N1CC2(CCC1=O)CCN(CCc1ccccc1)CC2 (stereo not shown),-9.3%
Cn1c(C2CCCN2C(=O)c2cn(CCN)nn2)nc2ccccc21 (stereo not shown),14.87%
CCn1cc(NC(=O)N2CCN(C(=O)Oc3ccccc3)CC2)cn1,5.167%
CCN1CC(C(=O)NCc2ccc3c(c2)nc(C)n3C)CCC1=O (stereo not shown),-13.24%
CCOCCS(=O)(=O)Cc1ccn(-c2cccc(F)c2)n1,5.251%
CCN(CC)c1ccc(NC(=O)NC(C)Cn2cccn2)cn1 (stereo not shown),-35.6%
O=C(CCNc1ncccn1)N1CCCC(n2ccnc2)C1 (stereo not shown),-3.013%
Cc1ccc(C2CCCN2CC(=O)N(CCC#N)c2ccccc2)cc1 (stereo not shown),-7.438%
CCc1noc(C)c1C(=O)NCC(c1ccc(C)cc1)N(C)C (stereo not shown),-14.55%
Cc1cnc(N2CCc3onc(COc4cccnc4)c3C2)nc1,-18.55%
CCc1nc(CN2CCCN(C(=O)c3occc3C)CC2)cs1,8.257%
O=C(O)C(F)(F)F.[H][C@]12CCC[C@@]1(COCc1ccncc1)CN(C(=O)C1=CCCC1)C2,-24.47% and -8.197%
CN1CC(C(=O)NCCc2ccc(Br)cc2F)CC1=O (stereo not shown),-3.368%
Cc1cnn(CC(C)NCc2ccc(OCc3ccncc3)cc2)c1 (stereo not shown),-4.901%
Cc1ncnc2c1CCN(Cc1nccs1)CC2.O=C(O)C(F)(F)F,-7.533%
Cc1nc(CN(C)C2CCN(CCc3cnn(C)c3)C2)no1 (stereo not shown),-36.48%
O=C(CCN1CCOCC1)N1CCC(Cc2ccc(CO)cc2)C1 (stereo not shown),-10.19%
Cc1nc(CNC(C)c2ccc(OCC(=O)NC3CC3)cc2)cs1 (stereo not shown),-1.512%
CCCc1nc(C(=O)NC(COC)c2ccnn2C)cs1 (stereo not shown),-7.193%
COc1ccc(C(N)=O)cc1NCc1ncc(-c2cccs2)o1,-1.201%
N#Cc1cc(F)ccc1NCC1CCS(=O)(=O)CC1,-14.25%
CC(=O)NCc1cc2n(n1)CCN(Cc1cccc(CCN)c1)C2,24.17%
CC(C)CC(CNC(=O)NCc1cc[nH]n1)N1CCOCC1 (stereo not shown),-30.8%
CC(C)CC(=O)N1CC(=O)c2sc(NCCc3ccccc3)nc2C1,-23.91%
CC(C)n1nccc1NC(=O)CN1CCc2sccc2C1,4.626%
Cc1noc(CC2CCN(Cc3ccc(CCC(C)(C)O)cc3)CC2)n1,-15.96%
Cc1ccc(CS(=O)(=O)N2Cc3c(CN(C)C)nn(C)c3C2)cc1.O=C(O)C(F)(F)F,10.67%
Cc1ccccc1C(=O)NC[C@@H]1CCN(C(=O)c2cccn2C)C[C@H]1O,-9.231%
COCC1c2c(cnn2CC2CC2)CCN1Cc1ccsc1.O=C(O)C(F)(F)F.O=C(O)C(F)(F)F (stereo not shown),-35.05%
COc1ccc(C)cc1C(C)NC(=O)NCCCn1cncn1 (stereo not shown),-5.141%
c1ccc2c(N3CCCCC3)cnnc2c1,-14.82%

The last 6 entries again:

SMILES	effect
Cc1noc(CC2CCN(Cc3ccc(CCC(C)(C)O)cc3)CC2)n1	-15.96%
Cc1ccc(CS(=O)(=O)N2Cc3c(CN(C)C)nn(C)c3C2)cc1.O=C(O)C(F)(F)F	10.67%
Cc1ccccc1C(=O)NC[C@@H]1CCN(C(=O)c2cccn2C)C[C@H]1O	-9.231%
COCC1c2c(cnn2CC2CC2)CCN1Cc1ccsc1.O=C(O)C(F)(F)F.O=C(O)C(F)(F)F (stereo not shown)	-35.05%
COc1ccc(C)cc1C(C)NC(=O)NCCCn1cncn1 (stereo not shown)	-5.141%
c1ccc2c(N3CCCCC3)cnnc2c1	-14.82%

From ChEMBL document CHEMBL3988442, “University of Dundee, Small-Polar-MMV Screening Library” (2021).